Laboratory results from paper PMC12670160, “A drug-repurposing screen of FDA- and EMA-approved drugs identifies two NF-κB inhibitors active against eumycetoma” (Journal of Antimicrobial Chemotherapy, 2025).
Structures can show the parent of a compound that is named as a salt. In all, about 5,300 compounds went through this assay and about 130 (2.5%) showed an effect of 50% or more. This is one part of the list.

tested on: M. mycetomatis strain mm55; conditions: primary screen, metabolic activity vs growth control; 96 h, 2 µM; inhibitor

Row | Compound | % viability [%]
1 | COc1cccc(N(C)C(=S)Oc2ccc3c(c2)CCCC3)n1 [ONC0005039, liranaftate] | 93.1
2 | Cc1ccc(-c2ncn(-c3ccc(Nc4nccc(-c5cccc(N6CCOCC6)c5)n4)cc3)n2)cn1 [ONC0001017, sr3306] | 76.53
3 | CCNC(=O)c1noc(-c2cc(C(C)C)c(O)cc2O)c1-c1ccc(CN2CCOCC2)cc1 [ONC0001803, luminespib] | 119.4
4 | CCCNC(C)C(=O)Nc1c(C)csc1C(=O)OC (centres unmarked) [ONC0004821, articaine hcl] | 100
5 | NCCc1cc[nH]n1 [ONC0003696] | 54.75
6 | COc1cc(N)c(Cl)cc1C(=O)CCC1CCN(CCNS(C)(=O)=O)CC1 [ONC0002585, rs67506] | 61.24
7 | CNCc1ccc(-c2[nH]c3cc(F)cc4c3c2CCNC4=O)cc1 [ONC0004671, rucaparib ag014699pf01367338 phosphate] | 102.4
8 | O=C1NC(=O)c2cc(Nc3ccc(F)cc3)c(Nc3ccc(F)cc3)cc21 [ONC0001274, cgp53353] | 118.4
9 | CN[C@@H]1C(O)[C@@H](O[C@@H]2[C@@H](O)[C@H](O[C@H]3OC(CN)=CC[C@H]3N)[C@@H](N)C[C@H]2N)OC[C@]1(C)O (some centres unmarked) [ONC0004182, sisomicin sulfate] | 80.98
10 | CC(=O)c1cc([N+](=O)[O-])c(Sc2ccc(F)cc2F)s1 [ONC0005133, p22077] | 95.02
11 | C[C@H](NC[C@H](O)CP(=O)(O)Cc1ccccc1)c1ccc(Cl)c(Cl)c1 [ONC0001599, cgp55845] | 83.7
12 | O=C(O)C(Cl)Cl [ONC0002183, dichloroacetate] | 74.22
13 | NS(=O)(=O)Cc1noc2ccccc12 [ONC0002687, zonisamide] | 69.04
14 | CC(=N)NCc1cccc(CN)c1 [ONC0002472, 1400w] | 77.71
15 | CN(C)CCN(Cc1ccc(Cl)cc1)c1ccccn1 [ONC0005381, chloropyramine hydrochloride] | 93.83
16 | CCCCCCCCCCOc1cc2c(O)c(C(=O)OCC)cnc2cc1OCC [ONC0001862, decoquinate] | 96.28
17 | C=CCc1ccc(O)c(-c2cc(CC=C)ccc2O)c1 [ONC0004998, magnolol] | 110.9
18 | COc1ccc2c(c1)C(=O)N(CCc1ccc(S(=O)(=O)NC(=O)NC3CCCCC3)cc1)C(=O)C2(C)C [ONC0005045, gliquidone] | 85.53
19 | CC(=O)NCCNc1cc(Cl)nn2c(-c3cccc(S(=O)(=O)N(C)C)c3)c(C)nc12 [ONC0001404, mi14] | 118.1
20 | Cc1cc(C(C#N)c2ccc(Cl)cc2)c(Cl)cc1NC(=O)c1cc(I)cc(I)c1O (centres unmarked) [ONC0003915, closantel] | 71.86
21 | CN1C(=O)C[C@@H](C(=O)N[C@@H](Cc2c[nH]cn2)C(=O)N2CCC[C@H]2C(N)=O)NC1=O [ONC0001236, taltirelin] | 94.54

Row | Compound | % viability [%]
22 | CC(C[N+](C)(C)C)OC(N)=O (centres unmarked) [ONC0003212, bethanechol chloride] | 121.5
23 | O=C(O)c1nn(Cc2ccc(Cl)cc2Cl)c2ccccc12 [ONC0001931, lonidamine] | 86.74
24 | CC(C)(C)c1cc(C=C(C#N)C#N)cc(C(C)(C)C)c1O [ONC0004560, tyrphostin 9 sf 6847] | 1.693
25 | NCCC(O)(P(=O)(O)O)P(=O)(O)O [ONC0004803, pamidronate disodium] | 92.91
26 | CC(C)[C@@H]1C(=O)N(S(C)(=O)=O)[C@@H]2CCN(C(=O)/C=C/CN3CCCCC3)[C@H]21 [ONC0001820, gw311616] | 116.1
27 | Cc1c(NC(=O)OC[C@@H]2COCCN2)cn2ncnc(Nc3ccc4c(cnn4Cc4cccc(F)c4)c3)c12 [ONC0000856, bms599626] | 79.52
28 | O=P(O)(O)OC[C@H]1OC(O)(COP(=O)(O)O)[C@@H](O)[C@@H]1O (some centres unmarked) [ONC0003364, dfructose16diphosphate trisodium salt] | 91.66
29 | Cc1ccc2nc(NCCN)c3ncc(C)n3c2c1 [ONC0000185, bms345541] | 76.38
30 | Cc1ccc(C(=O)N(CCCN)[C@@H](c2nc3cc(Cl)ccc3c(=O)n2Cc2ccccc2)C(C)C)cc1 [ONC0004640, ispinesib sb715992] | 78.35
31 | OCc1ccc(O[C@@H]2O[C@@H](CO)[C@@H](O)[C@H](O)[C@H]2O)cc1 [ONC0005041, gastrodin gastrodine] | 145
32 | CC1=CC(=O)c2ccccc2C1=O [ONC0004076, menadione] | 98.22
33 | C#C[C@]1(OC(C)=O)CC[C@H]2[C@@H]3CCC4=CC(=O)CC[C@@H]4[C@H]3CC[C@@]21C [ONC0000411, norethindrone acetate] | 51.27
34 | CCCCOC(=O)c1ccc(O)cc1 [ONC0005436, butyl paraben] | 87.57
35 | N#CC[C@@H](C1CCCC1)n1cc(-c2ncnc3[nH]ccc23)cn1 [ONC0005137, sruxolitinib] | 75.93
36 | OCCC#Cc1nc(-c2ccc(F)cc2)c(-c2ccncc2)n1CCCc1ccccc1 [ONC0002630, rwj67657] | 73.95
37 | COCCCOc1cc(C[C@@H](C[C@H](N)[C@@H](O)C[C@H](C(=O)NCC(C)(C)C(N)=O)C(C)C)C(C)C)ccc1OC [ONC0004094, aliskiren hemifumarate] | 99
38 | Cc1noc(C)c1-c1cc(O)cc(C(O)c2ccccc2)c1 (centres unmarked) [ONC0000256, oxfbd02] | 61.49
39 | CC(C)(C)C1CCc2c(sc(NC(=O)c3ccco3)c2C(=O)O)C1 (centres unmarked) [ONC0001654, caccinha01] | 91.37
40 | CCCc1nc2c(C)cc(-c3nc4ccccc4n3C)cc2n1Cc1ccc(-c2ccccc2C(=O)O)cc1 [ONC0004276, telmisartan] | 79.05
41 | CCCCC1C(=O)N(c2ccccc2)N(c2ccccc2)C1=O [ONC0000612, phenylbutazone] | 113
42 | CC[N+](CC)(CCNC(=O)C(=O)NCC[N+](CC)(CC)Cc1ccccc1Cl)Cc1ccccc1Cl [ONC0001517, ambenonium] | 123.4

Structures listed so far that have a cyano group:
Row | Compound | % viability [%]
20 | Cc1cc(C(C#N)c2ccc(Cl)cc2)c(Cl)cc1NC(=O)c1cc(I)cc(I)c1O (centres unmarked) [ONC0003915, closantel] | 71.86
24 | CC(C)(C)c1cc(C=C(C#N)C#N)cc(C(C)(C)C)c1O [ONC0004560, tyrphostin 9 sf 6847] | 1.693
35 | N#CC[C@@H](C1CCCC1)n1cc(-c2ncnc3[nH]ccc23)cn1 [ONC0005137, sruxolitinib] | 75.93

Following part:

Row | Compound | % viability [%]
43 | CN1C2C[C@H](OC(=O)[C@H](CO)c3ccccc3)C[C@@H]1[C@@H](O)C2 [ONC0003283, anisodamine hydrobromide] | 41.57
44 | Nc1nccc(-c2ccc3noc(-c4ccc(Cl)cc4)c3c2)n1 [ONC0000186, pim1inhibitor2] | 85.8
45 | CC(=O)N[C@H]1[C@H]([C@H](O)[C@H](O)CO)OC(C(=O)O)=C[C@@H]1N=C(N)N [ONC0004525, zanamivir relenza] | 62.68
46 | CCCC[P+](CCCC)(CCCC)Cc1ccc(NC(=O)[C@H](Cc2ccc3ccccc3c2)N=C(NC2CCCCC2)NC2CCCCC2)cc1 [ONC0000223, win64338] | 62.1
47 | COc1cc2ncnc(Nc3ccc(F)c(Cl)c3)c2cc1NC(=O)/C=C/CN1CCCCC1 [ONC0005075, dacomitinib pf299804 pf00299804] | 117.1
48 | O=C(CCCCC(=O)Nc1c(I)cc(I)c(C(=O)O)c1I)Nc1c(I)cc(I)c(C(=O)O)c1I [ONC0003852, iodipamide] | 70.04
49 | N#Cc1cccc(C(=O)Nc2cc(-c3ccccc3)nn2-c2ccccc2)c1 [ONC0002557, cdppb] | 86.8
50 | Cc1ccc(C(=O)C(C)CN2CCCCC2)cc1 (centres unmarked) [ONC0000616, tolperisone hydrochloride] | 105
51 | COc1ccccc1N1CCN(CC(O)COc2cc(OC)c(OC)c(OC)c2)CC1 (centres unmarked) [ONC0002005, enciprazine] | 99.71
52 | CNCC[C@@H](Oc1ccccc1C)c1ccccc1 [ONC0003976, atomoxetine hydrochloride] | 102.9
53 | Cc1ccc(Cl)c(OCC(O)CNC(C)C)c1 (centres unmarked) [ONC0003711, 12chloro5methylphenoxy3isopropylamino2propanol] | 103
54 | CO[C@@H]1[C@H](O)[C@@H](CO)O[C@H]1n1cnc2c(NC3CCCCC3)ncnc21 [ONC0001403, sdzwag994] | 110.5
55 | NS(=O)(=O)C#Cc1ccccc1 [ONC0003052, pifithrinmu] | 89.98
56 | CC(C)C1C2CCC(C2)C1N (centres unmarked) [ONC0000835, agn192403] | 89.35
57 | Cc1cc(Nc2nc(N[C@@H](C)c3ncc(F)cn3)ncc2Cl)n[nH]1 [ONC0000920, azd1480] | 80.14
58 | COCCCOc1ccnc(C[S+]([O-])c2nc3ccccc3[nH]2)c1C (centres unmarked) [ONC0000724, rabeprazole sodium] | 77.4
59 | Cc1cc(Nc2ncc(Cl)c(Nc3ccccc3S(=O)(=O)C(C)C)n2)c(OC(C)C)cc1C1CCNCC1 [ONC0002094, ceritinib] | 66.29
60 | C#C[C@]1(O)CC[C@H]2[C@@H]3CCC4=CC(=NO)CC[C@@H]4[C@H]3CC[C@@]21CC (mixture of isomers) [ONC0000953, norgestimate metabolite norelgestromin] | 67.65
61 | O[C@H]1CC[C@H](Nc2nc(-c3ccccc3)nc3[nH]ccc23)CC1 [ONC0002724, slv320] | 89.36
62 | CCN(CC)CCCN(c1ccccc1)C1Cc2ccccc2C1 [ONC0005460, aprindine] | 71.07
